At least one structure is not confirmed: it was looked up by name or label, or the drawing left a doubt.
Legend:
Type in all cases: cell-based, human
[1] = tested on: ERK; assay: ERK biosensor (ERK-KTR-mClover) live imaging; settings: Dab or Vem plus MEK inhibition, 24 h
Description: For live imaging of the ERK biosensor, NHEKs were transduced with ERK-KTR-mClover (Addgene Cat. #59150). HEK293FT cells were grown in complete DMEM, then transfected with 4 μg pLenti-CMV-PuroDEST-ERK-KTR-mClover DNA plus 12 μl FuGENE 6 (Promega of Madison, WI, Cat. #E2691) in 800 μL of Opti-MEM (Thermo-Fisher Cat. #31985070), which was added to the cells and left overnight. Lentiviral supernatants were collected the next day and polybrene (Sigma Cat. #H9268) was added at a concentration of 4 μg/mL. M154 was removed from NHEKs and replaced with viral medium for 1 hour at 37° C. Cells were then washed in PBS and placed back in their normal medium and expanded in culture.
ERK-KTR-mClover-transduced cells were seeded into 35 mm glass-bottom dishes in low calcium medium (0.31 mM) and grown to confluency. […] Using Fiji (Fiji software, https://github.com/fiji/fiji), the nuclear region was encircled with the polygon tool and the “Measure” function was used to calculate the mean fluorescence intensity; after using the “Cut” function to remove the nuclear region, then remaining cytoplasmic region was encircled with the polygon tool and the “Measure” function was used to calculate the mean fluorescence intensity. The ERK activity index was calculated as the ratio of the cytoplasmic integrated fluorescence intensity (active) to the nuclear integrated fluorescence intensity.

[2] = tested on: HET cells (SERCA2-depleted keratinocytes, THEKs); assay: RT-qPCR of keratinocyte mRNA transcripts; settings: HET cells in E-medium 24 hours; trametinib 1 μM, U0126 10 μM, PD184352 10 μM
Description: THEKs were seeded at a density of 1×10^6 cells per well of 6-well cell culture dishes in complete KSFM. Upon reaching confluence, KSFM was replaced with E-medium containing vehicle control (DMSO) or inhibitors at the following concentrations: Trametinib (1 μM), U0126 (10 μM), or PD184352 (10 μM). At the indicated time points, cell culture medium was removed and cells were washed once with PBS. RNA was extracted using the NucleoSpin RNA Plus Kit (Machery-Nagel of Duren, Germany) followed by reverse-transcription with the iScript cDNA synthesis kit (Bio-Rad of Hercules, CA) according to the manufacturer's instructions. Copy DNAs, also referred to as complementary DNAs (cDNAs) were diluted 5-fold and 2 μL of the resulting cDNAs were used for each 10 μL quantitative polymerase chain reaction (qPCR) assay. Real-time qPCR assays were carried out using the TaqMan Gene expression master mix (Applied Biosystems of Waltham, MA) according to the manufacturer's protocol. Pre-designed TaqMan probes from Thermo-Fisher were used for quantification of human Actb (Hs01060665_g1), Krt1 (Hs00196158_m1), Krt10 (Hs00166289_m1), Krt14 (Hs00265033_m1), Dsg1 (Hs00355084_m1), Alox12b (Hs00153961_m1), Alox15b (Hs00153988_m1), Ifi27 (Hs01086373_g1), Trpv3 (Hs00376854_m1), Trpv4 (Hs01099348_m1), or Notch1 (Hs01062014_m1). The housekeeping gene Actb was used as an endogenous control and mRNA fold changes were determined using the 2^(−ΔΔCt) method.

[3] = tested on: NHEK monolayers; assay: Monolayer mechanical dissociation assay, B-RAF inhibitor model of Grover disease; settings: co-treatment with Dab or Vem; trametinib 1 μM, U0126 10 μM, PD98059 20 μM; 24 h
Description: Dispase-based mechanical dissociation assays were carried out as described (70). Keratinocytes were plated at a density of 1×10^6 cells per well of 6-well cell culture dishes. Upon reaching confluence, the cells were switched into E-medium. Vehicle control (DMSO) or chemical inhibitors were added at the following concentrations: Dabrafenib (1 μM), vemurafenib (10 μM) trametinib (1 μM), U0126 (10 μM), or PD98059 (20 μM). After 24 h, monolayers were washed with PBS and then incubated with 500 μL dispase (5 U/ml) in Hank's balanced salt solution (Stemcell Technologies of Vancouver, Canada, Cat. #07913) for 30 minutes at 37° C. Next, 4.5 mL PBS was added to the wells and all liquid plus released monolayers were transferred into 15 mL conical tubes, which were placed together in a rack and inverted 1-10 times to induce mechanical stress. Monolayer fragments were transferred back into 6-well cell culture plates and imaged with a 12-megapixel digital camera. Fragments were counted in Fiji.

[4] = tested on: NHEKs; assay: Immunofluorescence of plakoglobin / desmosomal protein localization; settings: NHEKs treated with Dab or Vem plus Tram
Description: Keratinocytes were grown to confluency in 35 mm glass-bottom cell culture dishes (MatTek of Ashland, MA, Cat. #P35G-1.5-20-C). For staining keratins and desmosomal proteins, cells were fixed in ice-cold 100% methanol at −20° C. for 2 minutes, allowed to dry, then re-hydrated in PBS. For staining other proteins, cells were fixed in 4% paraformaldehyde for 10 minutes at 37° C. Fixed cells were then incubated with blocking buffer [0.5% (w/v) bovine serum albumin (BSA, Sigma), 10% (w/v) normal goat serum (NGS, Sigma) in PBS] for 30 min at 37° C. Cells were then washed with PBS. Primary antibodies were diluted in 0.5% (w/v) BSA in PBS and incubated on the cells overnight at 4° C. Primary antibody dilutions were as follows: chicken anti-plakoglobin (1:1000). […]
Images were acquired on a Hamamatsu ORCA-FusionBT sCMOS camera (Hamamatsu of Hamamatsu City, Japan) using a Yokogawa W1 spinning-disk confocal (SDC) system (Yokogawa of Musashino, Tokyo, Japan) on a Nikon Ti2 microscope (Nikon of Minato City, Tokyo, Japan). Samples were illuminated using 405, 488, 561, and 640 nm laser excitation lines and fluorescence was detected using a 60×1.2 numerical aperture (NA) water objective (Nikon) with standard emission filters.

## CC(=O)Nc1cccc(-n2c(=O)n(C3CC3)c(=O)c3c(Nc4ccc(I)cc4F)n(C)c(=O)c(C)c32)c1 [trametinib]
[1]
  effect on B-RAF inhibitor-induced ERK activation (biosensor): reversed
[2]
  DSG1 mRNA expression: sufficient to augment expression
  KRT1 mRNA expression: sufficient to augment expression
  KRT10 mRNA expression: sufficient to augment expression
  KRT14 mRNA levels: did not significantly alter
[3]
  integrity of keratinocyte sheets despite B-RAF inhibition: restoring the integrity of keratinocyte sheets to the level of control cultures
[4]
  localization of desmosomal proteins to cell-cell junctions: greatly enhanced localization of desmosomal proteins to cell-cell junctions
